Measurements reported in PubChem BioAssay AID504764 (Drosophila RNAi Screening Center, 2011).

Test: 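Genes whose knock-down alters Notch-dependent transcription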 (primary screen)
Cells: Drosophila Kc167 cells
Reagents: long dsRNA against Drosophila genes
Time to read-out: about 5 days (4 days dsRNA, then 24 h after transfection)
Treatment: transfection of constitutively active membrane-tethered Notch lacking the extracellular domain, read 24 h later
Measurement: 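Firefly luciferase from an E(spl)m3 reporter with active Notch, plus control-promoter and uninduced reporter wells for normalisation; unnormalised counts, duplicate wells a and b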
Scale: induced reporter light, run 1, well a and induced reporter light, run 1, well b: higher = more light from the Notch target reporter with active Notch; control promoter light, run 1, well a and control promoter light, run 1, well b: higher = more light from the viral control promoter (cell number, transfection, viability); uninduced reporter light, run 1, well a: higher = more light from the Notch target reporter without active Notch
Active means: 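Wells with low control signal or poorly matching duplicates excluded; duplicates averaged; per source plate, z beyond ±2 for induced/control log2 ratio or beyond ±1.8 for induced/uninduced marks a hit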
Meaning of the calls: active = modifier hit (raised or lowered Notch signal); inactive = not a hit
The deposit covers about 22,000 reagents; below is an unselected part of those that have a named target and a result. Over the whole deposit, 403 (1.9%) were called active. 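Unnormalised raw counts per well; ratio z-scores behind the hit calls and whether each hit raises or lowers signal are not deposited.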 Not given: the amount of reagent.

Ilp8 [DRSC10076] → induced reporter light, run 1, well a = 2.36e5; induced reporter light, run 1, well b = 1.66e5; control promoter light, run 1, well a = 2.46e5; control promoter light, run 1, well b = 1.82e5; uninduced reporter light, run 1, well a = 10840; outcome = inactive
CG11911 [DRSC00331] → induced reporter light, run 1, well a = 1.76e5; induced reporter light, run 1, well b = 2.25e5; control promoter light, run 1, well a = 1.87e5; control promoter light, run 1, well b = 2.43e5; uninduced reporter light, run 1, well a = 17420; outcome = inactive
CG5435 [DRSC02860] → induced reporter light, run 1, well a = 96460; induced reporter light, run 1, well b = 1.13e5; control promoter light, run 1, well a = 1.07e5; control promoter light, run 1, well b = 1.18e5; uninduced reporter light, run 1, well a = 9840; outcome = inactive
CG11454 [DRSC00310] → induced reporter light, run 1, well a = 1.47e5; induced reporter light, run 1, well b = 1.68e5; control promoter light, run 1, well a = 1.85e5; control promoter light, run 1, well b = 2.20e5; uninduced reporter light, run 1, well a = 17825; outcome = inactive
kud [DRSC11086] → induced reporter light, run 1, well a = 2.85e5; induced reporter light, run 1, well b = 2.70e5; control promoter light, run 1, well a = 2.62e5; control promoter light, run 1, well b = 2.15e5; uninduced reporter light, run 1, well a = 8805; outcome = active
Bacc [DRSC00735] → induced reporter light, run 1, well a = 1.21e5; induced reporter light, run 1, well b = 1.16e5; control promoter light, run 1, well a = 1.07e5; control promoter light, run 1, well b = 60190; uninduced reporter light, run 1, well a = 9590; outcome = inactive
CG14502 [DRSC06473] → induced reporter light, run 1, well a = 81425; induced reporter light, run 1, well b = 1.12e5; control promoter light, run 1, well a = 1.91e5; control promoter light, run 1, well b = 1.54e5; uninduced reporter light, run 1, well a = 9010; outcome = inactive
Cys [DRSC16637] → induced reporter light, run 1, well a = 2.24e5; induced reporter light, run 1, well b = 1.85e5; control promoter light, run 1, well a = 2.00e5; control promoter light, run 1, well b = 1.89e5; uninduced reporter light, run 1, well a = 14350; outcome = inactive
DppIII [DRSC16241] → induced reporter light, run 1, well a = 1.33e5; induced reporter light, run 1, well b = 1.39e5; control promoter light, run 1, well a = 99690; control promoter light, run 1, well b = 80440; uninduced reporter light, run 1, well a = 6430; outcome = inactive
CG11384 [DRSC18628] → induced reporter light, run 1, well a = 1.43e5; induced reporter light, run 1, well b = 1.36e5; control promoter light, run 1, well a = 2.37e5; control promoter light, run 1, well b = 3.10e5; uninduced reporter light, run 1, well a = 11530; outcome = inactive
CG15024 [DRSC08478] → induced reporter light, run 1, well a = 2.11e5; induced reporter light, run 1, well b = 1.60e5; control promoter light, run 1, well a = 2.46e5; control promoter light, run 1, well b = 2.13e5; uninduced reporter light, run 1, well a = 7920; outcome = inactive
CG33752 [DRSC05351] → induced reporter light, run 1, well a = 2.45e5; induced reporter light, run 1, well b = 2.12e5; control promoter light, run 1, well a = 2.37e5; control promoter light, run 1, well b = 3.90e5; uninduced reporter light, run 1, well a = 17270; outcome = inactive
